Experimental data from doi:10.1101/2020.12.25.417865.
Read-outs that look alike come from different tables or passages of the source. Results are given in words; binding and its absence hold for the method and conditions named. Some results given as binding are weak or reduced against the parent protein; the word gives no strength. Where a sequence is shown, tags or fusion partners need not be part of it.

Protein sequences, listed by entry. Tags and fused reporters are not part of them.
UniProt Q12675: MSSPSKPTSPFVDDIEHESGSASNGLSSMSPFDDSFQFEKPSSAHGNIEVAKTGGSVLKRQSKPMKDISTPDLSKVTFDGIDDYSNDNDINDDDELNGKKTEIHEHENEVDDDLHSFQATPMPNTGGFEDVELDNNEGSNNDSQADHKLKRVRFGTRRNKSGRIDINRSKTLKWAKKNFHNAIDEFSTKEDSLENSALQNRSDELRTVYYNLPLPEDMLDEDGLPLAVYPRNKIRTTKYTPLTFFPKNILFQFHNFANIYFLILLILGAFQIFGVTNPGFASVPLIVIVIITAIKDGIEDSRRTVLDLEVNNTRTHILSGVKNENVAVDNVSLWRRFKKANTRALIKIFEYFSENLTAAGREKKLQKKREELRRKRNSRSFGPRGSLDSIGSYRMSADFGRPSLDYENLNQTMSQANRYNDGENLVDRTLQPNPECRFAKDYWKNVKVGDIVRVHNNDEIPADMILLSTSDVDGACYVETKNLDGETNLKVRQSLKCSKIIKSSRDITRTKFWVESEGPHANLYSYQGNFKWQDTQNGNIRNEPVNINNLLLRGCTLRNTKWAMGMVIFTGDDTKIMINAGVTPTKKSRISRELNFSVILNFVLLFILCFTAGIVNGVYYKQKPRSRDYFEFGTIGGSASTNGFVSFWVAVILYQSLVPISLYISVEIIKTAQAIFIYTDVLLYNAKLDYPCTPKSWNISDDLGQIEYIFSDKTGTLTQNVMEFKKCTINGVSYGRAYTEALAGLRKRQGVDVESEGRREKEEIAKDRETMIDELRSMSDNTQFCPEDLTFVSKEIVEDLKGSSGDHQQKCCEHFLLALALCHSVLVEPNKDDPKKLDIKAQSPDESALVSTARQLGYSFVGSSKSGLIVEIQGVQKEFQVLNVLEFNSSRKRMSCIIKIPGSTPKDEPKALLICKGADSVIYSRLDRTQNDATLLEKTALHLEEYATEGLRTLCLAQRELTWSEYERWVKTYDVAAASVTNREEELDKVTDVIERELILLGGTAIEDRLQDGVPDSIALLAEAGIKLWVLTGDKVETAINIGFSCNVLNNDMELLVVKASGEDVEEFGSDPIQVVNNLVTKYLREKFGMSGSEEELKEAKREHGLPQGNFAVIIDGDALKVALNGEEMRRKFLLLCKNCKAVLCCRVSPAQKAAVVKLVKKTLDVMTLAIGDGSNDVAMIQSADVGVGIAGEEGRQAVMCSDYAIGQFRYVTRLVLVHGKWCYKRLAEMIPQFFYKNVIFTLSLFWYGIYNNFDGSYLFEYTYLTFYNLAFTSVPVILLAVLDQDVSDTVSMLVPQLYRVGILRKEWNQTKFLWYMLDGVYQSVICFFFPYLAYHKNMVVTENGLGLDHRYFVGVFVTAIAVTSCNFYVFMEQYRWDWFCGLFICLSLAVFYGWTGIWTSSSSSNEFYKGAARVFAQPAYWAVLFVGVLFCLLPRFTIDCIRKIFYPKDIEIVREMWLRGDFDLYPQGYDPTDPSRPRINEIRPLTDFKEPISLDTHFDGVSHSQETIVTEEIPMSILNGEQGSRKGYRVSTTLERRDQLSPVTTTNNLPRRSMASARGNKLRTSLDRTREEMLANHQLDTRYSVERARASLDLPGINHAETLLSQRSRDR
UniProt P32660: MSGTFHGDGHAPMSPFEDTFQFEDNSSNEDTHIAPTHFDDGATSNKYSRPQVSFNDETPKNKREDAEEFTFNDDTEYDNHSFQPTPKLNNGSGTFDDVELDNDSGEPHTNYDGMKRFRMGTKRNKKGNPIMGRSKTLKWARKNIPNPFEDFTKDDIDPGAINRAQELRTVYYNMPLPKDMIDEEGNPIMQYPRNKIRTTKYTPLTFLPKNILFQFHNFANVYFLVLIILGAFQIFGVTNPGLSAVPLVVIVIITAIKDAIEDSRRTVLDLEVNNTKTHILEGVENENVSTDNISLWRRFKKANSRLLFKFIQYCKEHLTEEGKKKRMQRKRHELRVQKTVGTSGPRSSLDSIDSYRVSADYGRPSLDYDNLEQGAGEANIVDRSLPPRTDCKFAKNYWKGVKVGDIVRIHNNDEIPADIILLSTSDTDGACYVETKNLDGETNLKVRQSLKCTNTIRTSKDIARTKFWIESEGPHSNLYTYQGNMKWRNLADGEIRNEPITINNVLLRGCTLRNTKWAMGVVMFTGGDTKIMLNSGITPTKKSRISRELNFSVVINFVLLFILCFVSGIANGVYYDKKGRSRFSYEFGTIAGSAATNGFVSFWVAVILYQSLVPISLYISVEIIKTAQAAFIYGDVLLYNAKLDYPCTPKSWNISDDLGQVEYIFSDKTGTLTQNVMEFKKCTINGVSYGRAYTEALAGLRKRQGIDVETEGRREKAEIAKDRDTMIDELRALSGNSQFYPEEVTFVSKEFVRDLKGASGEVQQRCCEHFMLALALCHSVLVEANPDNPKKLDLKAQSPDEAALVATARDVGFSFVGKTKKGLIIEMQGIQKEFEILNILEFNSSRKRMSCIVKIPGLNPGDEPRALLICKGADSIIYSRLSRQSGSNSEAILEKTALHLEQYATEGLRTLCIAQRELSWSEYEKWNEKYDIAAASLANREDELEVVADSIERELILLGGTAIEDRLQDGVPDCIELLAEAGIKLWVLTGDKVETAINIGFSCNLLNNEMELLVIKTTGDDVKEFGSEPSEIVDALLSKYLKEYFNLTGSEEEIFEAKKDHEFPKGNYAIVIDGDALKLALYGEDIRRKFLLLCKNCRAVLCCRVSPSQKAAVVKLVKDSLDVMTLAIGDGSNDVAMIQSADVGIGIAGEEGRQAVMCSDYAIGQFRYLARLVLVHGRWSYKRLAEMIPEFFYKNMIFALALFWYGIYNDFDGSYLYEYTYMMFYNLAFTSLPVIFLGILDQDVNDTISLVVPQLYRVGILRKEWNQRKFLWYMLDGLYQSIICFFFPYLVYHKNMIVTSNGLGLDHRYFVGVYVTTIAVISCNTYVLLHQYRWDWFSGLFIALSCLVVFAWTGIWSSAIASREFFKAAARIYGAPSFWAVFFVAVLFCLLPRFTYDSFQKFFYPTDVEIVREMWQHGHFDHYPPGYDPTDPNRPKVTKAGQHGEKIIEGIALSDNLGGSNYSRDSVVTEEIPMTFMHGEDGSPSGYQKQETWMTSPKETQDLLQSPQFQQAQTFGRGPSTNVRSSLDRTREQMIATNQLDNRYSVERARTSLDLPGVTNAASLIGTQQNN

Tests used:
Experiment in all cases: PICT
[1] = biological target: T1, Trs85-FRB (S. cerevisiae) (UniProt P46944)
T1 sequence: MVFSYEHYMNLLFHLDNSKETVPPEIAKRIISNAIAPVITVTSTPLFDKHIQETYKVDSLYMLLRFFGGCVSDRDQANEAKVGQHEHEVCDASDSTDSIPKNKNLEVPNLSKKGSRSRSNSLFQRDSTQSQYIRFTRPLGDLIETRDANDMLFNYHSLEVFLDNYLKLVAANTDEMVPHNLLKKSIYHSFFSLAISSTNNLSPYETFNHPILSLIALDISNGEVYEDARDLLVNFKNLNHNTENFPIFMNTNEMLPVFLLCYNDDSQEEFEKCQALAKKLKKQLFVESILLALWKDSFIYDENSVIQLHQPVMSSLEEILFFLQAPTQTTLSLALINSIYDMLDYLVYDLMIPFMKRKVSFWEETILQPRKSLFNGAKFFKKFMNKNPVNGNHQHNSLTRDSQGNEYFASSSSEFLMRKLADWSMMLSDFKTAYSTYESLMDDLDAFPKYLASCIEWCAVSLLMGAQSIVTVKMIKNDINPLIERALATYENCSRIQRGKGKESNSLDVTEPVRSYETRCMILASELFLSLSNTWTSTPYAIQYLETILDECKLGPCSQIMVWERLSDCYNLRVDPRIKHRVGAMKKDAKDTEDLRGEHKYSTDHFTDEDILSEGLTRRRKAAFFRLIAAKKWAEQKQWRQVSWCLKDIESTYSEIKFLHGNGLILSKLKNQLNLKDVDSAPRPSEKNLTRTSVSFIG

[2] = biological target: T1, Trs85-FRB (S. cerevisiae); remark: listed apart in the source
[3] = biological target: T1, Trs85-FRB (S. cerevisiae); remark: listed apart in the source

For Dnf2 (from UniProt Q12675 1-1612), which binding [1] is on record?
Its binding is “binds”.

For Dnf1 (from UniProt P32660 1-1571), which binding [1] is on record?
The binding was “binds”.

B1: Drs2-GFP (protein, UniProt P39524 1-1355)
chain: MNDDRETPPKRKPGEDDTLFDIDFLDDTTSHSGSRSKVTNSHANANYIPPSHVLPEETIDLDADDDNIENDVHENLFMSNNHDDQTSWNANRFDSDAYQPQSLRAVKPPGLFARFGNGLKNAFTFKRKKGPESFEMNHYNAVTNNELDDNYLDSRNKFNIKILFNRYILRKNVGDAEGNGEPRVIHINDSLANSSFGYSDNHISTTKYNFATFLPKFLFQEFSKYANLFFLCTSAIQQVPHVSPTNRYTTIGTLLVVLIVSAMKECIEDIKRANSDKELNNSTAEIFSEAHDDFVEKRWIDIRVGDIIRVKSEEPIPADTIILSSSEPEGLCYIETANLDGETNLKIKQSRVETAKFIDVKTLKNMNGKVVSEQPNSSLYTYEGTMTLNDRQIPLSPDQMILRGATLRNTAWIFGLVIFTGHETKLLRNATATPIKRTAVEKIINRQIIALFTVLIVLILISSIGNVIMSTADAKHLSYLYLEGTNKAGLFFKDFLTFWILFSNLVPISLFVTVELIKYYQAFMIGSDLDLYYEKTDTPTVVRTSSLVEELGQIEYIFSDKTGTLTRNIMEFKSCSIAGHCYIDKIPEDKTATVEDGIEVGYRKFDDLKKKLNDPSDEDSPIINDFLTLLATCHTVIPEFQSDGSIKYQAASPDEGALVQGGADLGYKFIIRKPNSVTVLLEETGEEKEYQLLNICEFNSTRKRMSAIFRFPDGSIKLFCKGADTVILERLDDEANQYVEATMRHLEDYASEGLRTLCLAMRDISEGEYEEWNSIYNEAATTLDNRAEKLDEAANLIEKNLILIGATAIEDKLQDGVPETIHTLQEAGIKIWVLTGDRQETAINIGMSCRLLSEDMNLLIINEETRDDTERNLLEKINALNEHQLSTHDMNTLALVIDGKSLGFALEPELEDYLLTVAKLCKAVICCRVSPLQKALVVKMVKRKSSSLLLAIGDGANDVSMIQAAHVGVGISGMEGMQAARSADIAVGQFKFLKKLLLVHGSWSYQRISVAILYSFYKNTALYMTQFWYVFANAFSGQSIMESWTMSFYNLFFTVWPPFVIGVFDQFVSSRLLERYPQLYKLGQKGQFFSVYIFWGWIINGFFHSAIVFIGTILIYRYGFALNMHGELADHWSWGVTVYTTSVIIVLGKAALVTNQWTKFTLIAIPGSLLFWLIFFPIYASIFPHANISREYYGVVKHTYGSGVFWLTLIVLPIFALVRDFLWKYYKRMYEPETYHVIQEMQKYNISDSRPHVQQFQNAIRKVRQVQRMKKQRGFAFSQAEEGGQEKIVRMYDTTQKRGKYGELQDASANPFNDNNGLGSNDFESAEPFIENPFADGNQNSNRFSSSRDDISFDI
B1 was tested. Which binding [2] did it give?
Its binding is “binds”.

What about the binding [3] of the same molecule?
Its binding is “binds”.

What about the binding [1] of the same molecule?
The binding was “binds”.

B2: Bet5-GFP (protein, UniProt Q03630 1-159)
chain: MGIYSFWIFDRHCNCIFDREWTLASNSASGTINSKQNEEDAKLLYGMIFSLRSITQKLSKGSVKNDIRSISTGKYRVHTYCTASGLWFVLLSDFKQQSYTQVLQYIYSHIYVKYVSNNLLSPYDFAENENEMRGQGTRKITNRNFISVLESFLAPMVNQ
For B2, which binding [1] is on record?
Its binding is “binds”.
